# Cleaved PARP in drug-treated melanoma cells

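Human melanoma cells were exposed to two drugs together for 72 h in 1,536-well plates and read by automated microscopy after fixing and staining. The read-out is the fraction of cleaved-PARP-positive nuclei, in % of that fraction in the DMSO control; 200 means twice the control level of this apoptosis marker. Concentrations were fixed for each drug; these are the higher of two levels. The file gives one value for each pair and line, without errors, so small differences may be noise. Basal and induced levels differ widely between cell lines.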
This is part of the screen, not chosen by result.

Compounds and concentrations:
YM155, 0.002 µM: COCC[n+]1c2c(n(Cc3cnccn3)c1C)C(=O)c1ccccc1C2=O
sorafenib, 2 µM: CNC(=O)c1cc(Oc2ccc(NC(=O)Nc3ccc(Cl)c(C(F)(F)F)c3)cc2)ccn1
selumetinib, 0.075 µM: Cn1cnc2c(F)c(Nc3ccc(Br)cc3Cl)c(C(=O)NOCCO)cc21
GSK650394, 0.8 µM: O=C(O)c1ccc(-c2c[nH]c3ncc(-c4ccccc4)cc23)cc1C1CCCC1
vatalanib, 10 µM: Clc1ccc(Nc2nnc(Cc3ccncc3)c3ccccc23)cc1
OSU-03012, 5 µM: NCC(=O)Nc1ccc(-n2nc(C(F)(F)F)cc2-c2ccc3c(ccc4ccccc43)c2)cc1
BMS-536924, 1 µM: Cc1cc(N2CCOCC2)cc2[nH]c(-c3c(NC[C@@H](O)c4cccc(Cl)c4)cc[nH]c3=O)nc12
bortezomib, 0.005 µM: CC(C)C[C@H](NC(=O)[C@H](Cc1ccccc1)NC(=O)c1cnccn1)B(O)O
KU-0063794, 0.1 µM: COc1ccc(-c2ccc3c(N4CCOCC4)nc(N4C[C@@H](C)O[C@@H](C)C4)nc3n2)cc1CO
lestaurtinib, 0.02 µM: C[C@]12O[C@H](C[C@]1(O)CO)n1c3ccccc3c3c4c(c5c6ccccc6n2c5c31)CNC4=O
vincristine, 0.0005 µM: CC[C@]1(O)C[C@H]2CN(CCc3c([nH]c4ccccc34)[C@@](C(=O)OC)(c3cc4c(cc3OC)N(C=O)[C@H]3[C@@](O)(C(=O)OC)[C@H](OC(C)=O)[C@]5(CC)C=CCN6CC[C@]43[C@@H]65)C2)C1
IMD-0354, 0.08 µM: O=C(Nc1cc(C(F)(F)F)cc(C(F)(F)F)c1)c1cc(Cl)ccc1O
FH535, 5 µM: Cc1cc([N+](=O)[O-])ccc1NS(=O)(=O)c1cc(Cl)ccc1Cl
ABT-263, 2 µM: CC1(C)CCC(c2ccc(Cl)cc2)=C(CN2CCN(c3ccc(C(=O)NS(=O)(=O)c4ccc(N[C@H](CCN5CCOCC5)CSc5ccccc5)c(S(=O)(=O)C(F)(F)F)c4)cc3)CC2)C1
pioglitazone, 10 µM: CCc1ccc(CCOc2ccc(CC3SC(=O)NC3=O)cc2)nc1 (centres undefined)
bexarotene, 10 µM: C=C(c1ccc(C(=O)O)cc1)c1cc2c(cc1C)C(C)(C)CCC2(C)C
gemcitabine, 0.002 µM: Nc1ccn([C@@H]2O[C@H](CO)[C@@H](O)C2(F)F)c(=O)n1
CX-4945, 2 µM: O=C(O)c1ccc2c(c1)nc(Nc1cccc(Cl)c1)c1ccncc12
nutlin-3, 0.5 µM: COc1ccc(C2=N[C@@H](c3ccc(Cl)cc3)[C@@H](c3ccc(Cl)cc3)N2C(=O)N2CCNC(=O)C2)c(OC(C)C)c1
ENMD-2076, 0.2 µM: Cc1cc(Nc2cc(N3CCN(C)CC3)nc(/C=C/c3ccccc3)n2)n[nH]1

| Pair | A2058 | WM451Lu | WM115 | UACC-257 | SK-MEL-30 | C32 | MZ2-MEL | LB2518-MEL |
|---|---|---|---|---|---|---|---|---|
| IMD-0354 and bexarotene | 52.4 | 47.9 | 144 | 171 | 54.1 | 178 | 504 | 234 |
| selumetinib and nutlin-3 | 123 | 1040 | 386 | 34.1 | 111 | 239 | 401 | 333 |
| bortezomib and pioglitazone | 1770 | 3100 | 396 | 87.2 | 851 | 315 | 14500 | 4420 |
| ABT-263 and pioglitazone | 113 | 258 | 60.7 | 300 | 270 | 105 | 271 | 361 |
| YM155 and KU-0063794 | 648 | 220 | 95.6 | 834 | 220 | 89.2 | 1290 | 776 |
| vincristine and vatalanib | 771 | 479 | 6490 | 340 | 373 | 619 | 235 | 335 |
| pioglitazone and CX-4945 | 233 | 123 | 130 | 207 | 216 | 93.5 | 130 | 54.7 |
| ABT-263 and bexarotene | 129 | 179 | 83.2 | 2310 | 272 | 78.3 | 2350 | 355 |
| IMD-0354 and lestaurtinib | 111 | 87.5 | 237 | 74.8 | 117 | 19.1 | 136 | 504 |
| selumetinib and ENMD-2076 | 109 | 356 | 56.2 | 160 | 134 | 163 | 400 | 291 |
| ABT-263 and lestaurtinib | 131 | 77.8 | 855 | 563 | 284 | 53.4 | 166 | 289 |
| vincristine and nutlin-3 | 88.9 | 283 | 116 | 88.9 | 270 | 398 | 97.3 | 83.7 |
| KU-0063794 and GSK650394 | 164 | 135 | 34.3 | 23.9 | 90.0 | 103 | 142 | 97.1 |
| YM155 and GSK650394 | 465 | 282 | 390 | 2660 | 67.4 | 59.3 | 292 | 343 |
| bortezomib and YM155 | 1490 | 477 | 5070 | 3520 | 916 | 1650 | 3230 | 2440 |
| sorafenib and lestaurtinib | 112 | 159 | 122 | 91.7 | 272 | 64.1 | 161 | 246 |
| OSU-03012 and nutlin-3 | 120 | 61.9 | 152 | 46.2 | 636 | 376 | 172 | 64.9 |
| gemcitabine and YM155 | 927 | 602 | 266 | 1450 | 79.3 | 196 | 274 | 245 |
| GSK650394 and gemcitabine | 113 | 710 | 118 | 71.7 | 77.2 | 159 | 181 | 161 |
| FH535 and YM155 | 282 | 376 | 119 | 228 | 229 | 91.5 | 450 | 184 |
| nutlin-3 and BMS-536924 | 127 | 40.1 | 157 | 62.0 | 94.2 | 309 | 170 | 127 |

For reference, 3 entries once more:

{"pair": "nutlin-3 and BMS-536924", "A2058": 127, "WM451Lu": 40.1, "WM115": 157, "UACC-257": 62.0, "SK-MEL-30": 94.2, "C32": 309, "MZ2-MEL": 170, "LB2518-MEL": 127}
{"pair": "YM155 and KU-0063794", "A2058": 648, "WM451Lu": 220, "WM115": 95.6, "UACC-257": 834, "SK-MEL-30": 220, "C32": 89.2, "MZ2-MEL": 1290, "LB2518-MEL": 776}
{"pair": "pioglitazone and CX-4945", "A2058": 233, "WM451Lu": 123, "WM115": 130, "UACC-257": 207, "SK-MEL-30": 216, "C32": 93.5, "MZ2-MEL": 130, "LB2518-MEL": 54.7}

Values as published with doi:10.1371/journal.pone.0140310, rounded.